# Results from US4324788A, “Alkoxyalkylidenhydrazinopridazines and process for their preparation” (I.S.F. S.p.A., priority 1979, dated 1982).
# Legend:
# [1] = system: guinea-pig isolated atria; conditions: isoprenaline agonist, product at 10^-4 M
# strips of rabbit aorta = assay: Spasmolytic activity in vitro on strips of rabbit aorta with potassium chloride induced spasm; type: cell-based; conditions: Oryctolagus cuniculus, read-out: EC50 (relaxing 50% the strip of rabbit aorta)
# Experimental: spasmolytic activity is determined evaluating the direct relaxant effect on the vasal smooth muscle in vitro on strips of rabbit aorta in which spasm was induced by potassium chloride according to the method described in Journ. of Pharm. and Exper. […] The products were added at sequentially cumulative molar doses and their activity indicated as Effective Concentration (EC50).
compound,measurement,setting,value
"CC(C)NCC(O)COc1cccc2ccccc12 (centres unmarked) [Propanolol, reference compound]",DR4 (dose ratio of agonist EC50 in the presence and in the absence of the product),[1],6500
same,EC50,strips of rabbit aorta,> 10 mM
